From patent publication US20060068386A1, “Complete genome and protein sequence of the hyperthermophile methanopyrus kandleri av19 and monophyly of archael methanogens and methods of use thereof” (priority 2002, published 2006) come the findings set out here.

The test system of this series is DNA duplex of FIG. 16 (PTJ). Kind of series: Initial rates of primer extension reactions in salts (inhibition of polymerases and chimeras by NaCl, KCl, K-Glu). In kind it is biochemical. The note with it: for α (K-Glu), cooperativity parameter: inhibition by K-Glu, entries with * analysed by Eq. 3; for α (NaCl), cooperativity parameter: inhibition by NaCl. As to the method:
The polymerase activities of the four chimeras were tested by measuring initial rates of primer extension reactions. The reactions were carried out at low concentrations of substrate, when the initial rates were proportional both to total protein and PTJ concentrations. When [PTJ] is much less than Kmapp, the initial rate is determined as in Equation 1: v1=kapp/Kmapp*[Et]*[PTJ]1 Eq. 1 • where Kmapp and kapp are apparent Michaelis and catalytic constants, respectively.
The concentrations of sodium chloride (NaCl), potassium chloride (KCl) and potassium glutamate (K-Glu) were varied to assess inhibition of the Stoffel fragment and KlenTaq, and the four chimeras by salts, and to estimate the effects of the HhH domains.
Experimental values of initial polymerization rates were analyzed by nonlinear regression analysis using Equation 2: [formula] where v and v0 are initial primer extension rates with and without salt, respectively, Ki is the apparent inhibition constant; and α is the cooperativity parameter.
In Table 2, to take into account the activation of Pfu polymerase and the PfuC2 hybrid by KGlu (data entries marked with an asterisk (*), the experimental values of initial polymerization rates were analyzed by nonlinear regression using the Equation 3: [formula]
where v and v0 are initial primer extension rates with and without salt, respectively; Ki is an apparent inhibition constant, α is a parameter of cooperativity, β and γ are parameters of activation. Since γ≅2, it is likely that two ions of Glu^− bind to the Pfu polymerase catalytic domain without inhibiting the polymerase activity.

With “Taq Polymerase: DNA polymerase from Thermus aquaticus [reference compound]”, the “α (K-Glu), cooperativity parameter” value was 4.45 ± 0.3 and the “α (NaCl), cooperativity parameter” value stood at 3.24 ± 0.5.

B1: Pfu polymerase: whole size Pfu polymerase (protein, UniProt P61875 1-775, looked up)
chain: MILDVDYITEEGKPVIRLFKKENGKFKIEHDRTFRPYIYALLRDDSKIEEVKKITGERHGKIVRIVDVEKVEKKFLGKPITVWKLYLEHPQDVPTIREKVREHPAVVDIFEYDIPFAKRYLIDKGLIPMEGEEELKILAFDIETLYHEGEEFGKGPIIMISYADENEAKVITWKNIDLPYVEVVSSEREMIKRFLRIIREKDPDIIVTYNGDSFDFPYLAKRAEKLGIKLTIGRDGSEPKMQRIGDMTAVEVKGRIHFDLYHVITRTINLPTYTLEAVYEAIFGKPKEKVYADEIAKAWESGENLERVAKYSMEDAKATYELGKEFLPMEIQLSRLVGQPLWDVSRSSTGNLVEWFLLRKAYERNEVAPNKPSEEEYQRRLRESYTGGFVKEPEKGLWENIVYLDFRALYPSIIITHNVSPDTLNLEGCKNYDIAPQVGHKFCKDIPGFIPSLLGHLLEERQKIKTKMKETQDPIEKILLDYRQKAIKLLANSFYGYYGYAKARWYCKECAESVTAWGRKYIELVWKELEEKFGFKVLYIDTDGLYATIPGGESEEIKKKALEFVKYINSKLPGLLELEYEGFYKRGFFVTKKRYAVIDEEGKVITRGLEIVRRDWSEIAKETQARVLETILKHGDVEEAVRIVKEVIQKLANYEIPPEKLAIYEQITRPLHEYKAIGPHVAVAKKLAAKGVKIKPGMVIGYIVLRGDGPISNRAILAEEYDPKKHKYDAEYYIENQVLPAVLRILEGFGYRKEDLRYQKTRQVGLTSWLNIKKS
modifications: full-length
Take B1: the “α (K-Glu), cooperativity parameter” value stood at 3.24 ± 0.2 and the “α (NaCl), cooperativity parameter” value is recorded as 2.39 ± 0.1.
